According to patent US20070059242A1, “METHODS TO IDENTIFY THERAPEUTIC AGENTS” (priority 2005, published 2007):

Assay: Analysis of patient plasma samples for aldehydes 4a and 5a
Parameters: species or system human
Settings: cohort A, six of eight endarterectomy patients; endogenous level

For `CC(C)CCC[C@@H](C)[C@H]1CCC2C3C(CC[C@@]21C)[C@@]1(C)CC[C@H](O)C[C@@]1(O)[C@@H]3C=O` (stereo partly drawn) [5a, 3β-Hydroxy-5β-hydroxy-B-norcholestane-6β-carboxaldehyde], the “amount detected in plasma” value was 70 to 1690 nM.
